The target of test [1] is Smad family member 3 (Smad3), endogenous in mouse heart and cardiac fibroblasts (mouse (endogenous in mouse left ventricle and cardiac fibroblasts)) (UniProt Q8BUN5). Nature of the test: co-IP; total protein of cultured cardiac fibroblasts from WT mouse heart, infected by indicated adenoviruses, mechanically stretched for 6, 12 and 24 h; IP with antibodies against HSF1 or Smad3; blot for Smad3 or HSF1.

The chains behind the UniProt entries cited, without tags or fusion partners.
UniProt Q8BUN5: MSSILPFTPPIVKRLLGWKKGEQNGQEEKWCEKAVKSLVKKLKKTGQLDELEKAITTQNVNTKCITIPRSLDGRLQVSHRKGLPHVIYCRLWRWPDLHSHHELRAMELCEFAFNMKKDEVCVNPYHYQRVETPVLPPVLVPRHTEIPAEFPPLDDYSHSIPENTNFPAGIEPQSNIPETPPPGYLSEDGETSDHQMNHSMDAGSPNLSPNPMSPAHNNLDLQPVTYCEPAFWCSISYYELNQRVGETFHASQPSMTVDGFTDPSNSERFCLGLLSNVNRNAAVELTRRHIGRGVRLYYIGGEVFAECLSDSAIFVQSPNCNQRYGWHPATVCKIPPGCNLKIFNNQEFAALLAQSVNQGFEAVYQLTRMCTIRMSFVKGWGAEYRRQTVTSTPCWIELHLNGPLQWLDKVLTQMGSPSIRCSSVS
UniProt P38532: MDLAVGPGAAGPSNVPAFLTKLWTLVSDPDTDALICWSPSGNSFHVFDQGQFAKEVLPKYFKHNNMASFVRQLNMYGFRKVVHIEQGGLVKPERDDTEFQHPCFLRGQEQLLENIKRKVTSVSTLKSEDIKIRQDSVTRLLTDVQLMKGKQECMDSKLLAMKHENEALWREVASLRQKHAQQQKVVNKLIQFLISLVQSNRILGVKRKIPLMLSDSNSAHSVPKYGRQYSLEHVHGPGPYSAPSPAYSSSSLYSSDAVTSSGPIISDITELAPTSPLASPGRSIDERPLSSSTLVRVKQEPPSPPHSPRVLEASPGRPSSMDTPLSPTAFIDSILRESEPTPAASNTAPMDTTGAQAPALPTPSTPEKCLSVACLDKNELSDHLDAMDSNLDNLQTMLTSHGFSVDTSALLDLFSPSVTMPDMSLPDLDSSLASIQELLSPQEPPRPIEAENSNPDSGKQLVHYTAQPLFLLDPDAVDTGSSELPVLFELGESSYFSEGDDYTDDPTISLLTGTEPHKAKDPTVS

The target is the same in test [2]. Description: co-IP; 500 ug total protein from left ventricle of WT, HSF1 TG and HSF1 KO mice, sham or TAC for 4 weeks; IP with anti-total HSF1 or anti-total Smad3 and protein A/G Plus-Agarose; blot for Smad3 or HSF1.
A further test concerns the target GST fusion Smad3 (UniProt Q8BUN5). Description: pull-down; GST fusion protein on beads (0-100 ng), pre-incubated with 100 ug/ml BSA; 10 ng recombinant partner, 4 °C, 1 h; 50 mM Tris pH 7.5, 28 uM ZnCl2, 1% Triton X100, 220 mM NaCl, 10% glycerol; washes with 500 mM NaCl; blot with Smad3 or HSF1 antibody; both purified.
The target in another test is GST fusion HSF1 (UniProt P38532). Described as above.

Results are given in words; binding and its absence hold for the method and conditions named. For some of these results: In cells and extracts the contact can be indirect. Some results given as binding are weak or reduced against the parent protein; the word gives no strength.

Consider “Heat shock transcription factor 1 (HSF1), endogenous in mouse heart and cardiac fibroblasts (from UniProt P38532 1-525)”, for which the binding entry in test [1] and in test [2] was “binds” each time.

“recombinant HSF1 (from UniProt P38532 1-525)”: the binding entry with GST fusion Smad3 is “binds”. “recombinant Smad3 (from UniProt Q8BUN5 1-425)”: the binding entry with GST fusion HSF1 is “binds”.

The record behind these values is article PMC5357304.
